PubChem BioAssay AID2685 (National Center for Advancing Translational Sciences (NCATS), 2010)
The list shows a part of the results. The main result of the screen is listed elsewhere. These columns were measured beside it and carry no call. Most of these compounds were active or inconclusive in the main read-out, so they are no random draw. The note in brackets gives the kind of curve behind each potency; many fits are weak.

Experiment: qHTS Assay for Lipid Storage Modulators in Drosophila S3 Cells;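 for cell number change: cells counted by Cell Tracker Red CMTPX staining in the red channel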
Settings: BODIPY lipid droplet fluorescence, 18-24 h; for cell number change: measured here: cell count max response, cells fed with added oleic acid
In short: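 Laser-scanning cytometry quantifies lipid droplet accumulation (500–530 nm total intensity; droplet/cell object ratio) in oleic acid-fed (400 uM added) Drosophila S3 cells treated with a concentration series. 20 uM Triacsin C defined 100% inhibition.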

[1] = measured here: cell number channel AC50, cells fed with added oleic acid
[2] = measured here: lipid fluorescence (Fed channel) AC50, cells fed with added oleic acid

Row | SMILES | AC50 [1] | AC50 [2] | cell number change [%]
1 | CN1CCN(c2ccc(Cl)cc2NC(=O)/C=C/c2ccc(F)cc2)CC1 | 0.58 µM [rising, partial curve] | 4.11 µM [rising, single point] | 
2 | CN1CCN(c2nc3nonc3nc2N2CCN(C)CC2)CC1 | 4.11 µM [falling, full curve] | 18.4 µM [falling, single point] | -33.2
3 | Cc1c(Cl)cccc1NC(=O)CNc1cccc(S(=O)(=O)N(C)C)c1 |  |  | 15.3
4 | O=C(O)[C@@H]1CCCN1C(=O)CCc1c[nH]c2ccccc12 |  |  | -9.33
5 | Cc1ncoc1C(=O)N1CCCC(C(=O)c2ccc(C(F)(F)F)cc2)C1 (stereo not drawn) |  |  | -6.43
6 | COc1cccc(CN2CC(C(=O)NC3(c4ccccc4)CC3)CCC2=O)c1 (stereo not drawn) | 0.0058 µM [rising, full curve, poor fit] |  | 27.5
7 | O=C(O)c1ccc(/C=C/C(=O)c2ccc3c(c2)OCCCO3)cc1 |  | 0.116 µM [falling, single point] | 17.9
8 | CC1CCc2c(nc3ncnn3c2N2CC(C)OC(C)C2)C1 (stereo not drawn) |  | 5.8 µM [falling, single point] | -3.47
9 | COC(=O)c1ccc(C(=O)OC)c(NC(=O)COC(=O)C2CCCCC2)c1 | 0.116 µM [rising, full curve, poor fit] |  | 33.4
10 | CCOC(=O)C1C(=O)NC(N2CCCCC2)=NC1c1ccccc1 (stereo not drawn) |  |  | 0.859
11 | O=C(NCc1ccco1)c1cnn2cccnc12 | 29.1 µM [falling, single point] |  | -39
12 | Cc1cc(C)cc(NC(=O)Nc2ccccc2N2CCCCC2)c1 |  | 29.1 µM [falling, single point] | -26.8
13 | CCN1CCc2c(OCC(=O)N3CCc4ccccc43)cccc2C1=O |  |  | 53.2
14 | CC(O)CNc1nc2c(c(=O)n(C)c(=O)n2C)n1C/C=C/c1ccccc1 (stereo not drawn) |  | 29.1 µM [falling, single point] | -22.2
15 | CC1(C)CC(=O)C(C=Nc2ccc(NC3=C(C#N)C(=O)CC(C)(C)C3)cc2)=C(O)C1 | 29.1 µM [rising, single point] |  | 65
16 | Cc1ccc(O)c(C(=O)c2cnn(-c3ccc(S(=O)(=O)N4CCOCC4)cc3[N+](=O)[O-])c2)c1 | 6.51 µM [rising, partial curve, poor fit] |  | 9.26
17 | O=C(NCCCN1CCCC1)Nc1ccccc1[N+](=O)[O-] | 0.651 µM [rising, single point] |  | 11.7
18 | CCN(CC)CCCNc1nc2ccccc2[nH]1 | 25.9 µM [falling, partial curve] | 3.66 µM [falling, full curve] | -93.3
19 | COc1cccc2c(=O)cc(C)n(CC(=O)Nc3ccc(C)c(C)c3)c12 |  | 11.6 µM [falling, single point] | -90
20 | O=C(COc1ccc2ccccc2c1)NNC(=O)[C@@H]1CCCC[C@@H]1C(=O)O |  | 29.1 µM [falling, single point] | 22.5
21 | Cc1ccc(-c2cc(C(=O)N3CCOCC3)c3ccccc3n2)cc1 | 8.2 µM [rising, partial curve] | 6.51 µM [rising, single point] | 49.7

Row | SMILES | AC50 [1] | AC50 [2] | cell number change [%]
22 | Cc1ccc2cc(C)c(N3CCN(c4ccccn4)CC3)nc2c1 |  | 0.58 µM [rising, full curve] | -5.69
23 | O=C(NCc1csc(-c2ccccc2)n1)c1ccco1 |  | 29.1 µM [falling, single point] | 6.49
24 | O=C(c1ccc([N+](=O)[O-])cc1)N(Cc1ccc(Cl)cc1)N1C(=O)CCCC1=O |  | 4.11 µM [rising, full curve, poor fit] | 14.9
25 | CC1(C)CC(=O)C(C=NCCCN2CCOCC2)=C(O)C1 | 5.17 µM [falling, full curve] | 0.82 µM [falling, full curve] | -30.7
26 | Cc1ccccc1Cn1nc(C)c(NC(=O)c2sc3ccccc3c2Cl)c1C |  |  | 4.9
27 | CN1CCN(c2ccc(S(=O)(=O)N3CCCCC3)cc2NC(=O)c2ccc(F)cc2F)CC1 |  |  | -0.833
28 | Cc1ccc(NC(=O)COc2ccc(N3CC(C(N)=O)CC3=O)cc2)c(C)c1 (stereo not drawn) |  |  | 20.4
29 | CCOc1ccc(C(=O)C(C)OC(=O)Cn2c(C)csc2=O)cc1 (stereo not drawn) | 20.6 µM [rising, single point] |  | 36.9
30 | NC(N)=NS(=O)(=O)c1ccc(NC(=S)NC(=O)c2ccccc2)cc1 | 0.731 µM [rising, single point] | 23.1 µM [falling, single point] | -1.49
31 | O=C1NC(=O)/C(=C\c2ccc(Sc3ccc(Cl)cc3)o2)N1 | 0.92 µM [rising, full curve] | 0.82 µM [rising, full curve] | 
32 | O=[N+]([O-])c1ccc(OCc2cn([C@@H](CO)c3ccccc3)nn2)c(Br)c1 |  |  | 27.8
33 | O=C(NCCN1CCOCC1)c1ccc(CS(=O)(=O)c2c(Cl)cccc2Cl)o1 |  | 11.6 µM [rising, single point] | 
34 | C=C(C)[C@H]1CC=C(C)C(=O)C1 | 0.651 µM [rising, single point] |  | 3.28
35 | COc1ccccc1C(=O)NC(C)C(c1cccs1)N1CCOCC1 (stereo not drawn) | 13 µM [rising, partial curve] | 1.84 µM [falling, partial curve] | 106
36 | Cc1ccccc1CNC(=O)c1ccccc1SCC(=O)NCc1ccco1 | 8.2 µM [rising, partial curve] |  | 87.1
37 | COC(=O)c1c(NC(=O)CSc2nc(-c3ccco3)cc(C(F)(F)F)n2)sc2c1CCCC2 |  | 29.1 µM [rising, single point] | 13.3
38 | O=C(Cc1ccc(Cl)cc1)NNC(=S)NC(=O)c1cccnc1 |  |  | -2
39 | Cc1ccccc1N(C(=O)c1snc(C(N)=O)c1N)C(C(=O)NC1CCCCC1)c1ccc(O)cc1 (stereo not drawn) |  |  | -1.71
40 | CCN(CC(=O)Nc1c(F)cccc1F)C(=O)c1cccc(S(=O)(=O)N(C)c2ccccc2)c1 | 10.3 µM [rising, single point] |  | 31.6
41 | CC1C(=O)O[C@@H]2C[C@@H](C)[C@@H]3CCC(=O)[C@@]3(C)[C@@H](O)[C@H]12 (stereo partly drawn) |  | 0.231 µM [falling, full curve, poor fit] | 14.2
42 | Cc1ccc(NC(=O)C(=O)NNC(=O)c2cccs2)cc1 |  |  | 11.1

Row | SMILES | AC50 [1] | AC50 [2] | cell number change [%]
43 | CN(C)/C=C/C(=O)c1cc(N2CCOCC2)ccc1[N+](=O)[O-] |  | 32.6 µM [falling, single point] | -17.7
44 | CCOC(=O)c1c(C)nc2c(c1-c1cc(OC)c(OC)c(OC)c1)C(=O)c1ccccc1-2 | 0.0146 µM [rising, full curve] | 0.206 µM [rising, partial curve] | 41.9
45 | CCOc1ccccc1NC(=S)NC(=O)CCc1ccccc1 |  |  | -14.9
46 | Cc1cccnc1CCNC(=O)CCc1nnc(-c2ccccc2)o1 |  | 1.64 µM [falling, full curve, poor fit] | -15.8
47 | Cc1noc(C)c1S(=O)(=O)N1CCC(C(=O)N2CCC(N3CCCCC3)CC2)CC1 | 6.51 µM [rising, single point] | 25.9 µM [rising, single point] | 41.9
48 | Cc1nn(Cc2ccc(C(=O)N/N=C/c3ccncc3)o2)c(C)c1Cl |  | 29.1 µM [rising, single point] | 22.8
49 | Cc1nc(N2CCOCC2)nc(OCCN2CCOCC2)c1[N+](=O)[O-] |  | 0.00461 µM [falling, full curve, poor fit] | 13.1
50 | Brc1cccc(OCCCCN2CCCCC2)c1 | 3.26 µM [rising, single point] | 5.8 µM [rising, partial curve, poor fit] | 21
51 | CC(O)c1nc2ccccc2n1CC(=O)Nc1ccc(F)cc1Cl (stereo not drawn) |  |  | -14.6
52 | CC1(C)CC(=O)C=C(N2CCNCC2)C1 |  | 5.8 µM [falling, full curve] | -9.03
53 | O=C(Cc1nnc(NC(=O)c2ccccc2)s1)N/N=C\c1ccc(O)c(O)c1 |  |  | -13.5
54 | CC(=O)c1cc2c(cc1N(C(=O)Cn1nnc3ccccc31)C(C(=O)NCCC(C)C)c1cccnc1)OCO2 (stereo not drawn) |  | 2.59 µM [rising, single point] | 
55 | O=C(CCCCCNC(=S)Nc1ccccc1)C[N+](=O)[O-] |  | 0.116 µM [falling, full curve, poor fit] | 
56 | CCN(CC)C(=O)COc1ccc2c3c(c(=O)oc2c1C)CCCC3 |  | 29.1 µM [rising, single point] | 1.1
57 | COc1cc(C=O)ccc1OCC(=O)N1CCOCC1 |  | 29.1 µM [falling, single point] | -6.94
58 | CCSc1nnc(NC(=O)CSc2nc3c(c(=O)n2CCOC)SC(C)C3)s1 (stereo not drawn) | 10.3 µM [falling, partial curve] | 9.2 µM [falling, partial curve] | -53.5
59 | O=C(NCCCN1CCCC1=O)c1cn(-c2ccccc2)nc1-c1ccccc1 |  | 16.4 µM [rising, single point] | 17.5
60 | O=C(c1cnn2c(C(F)F)cc(C3CC3)nc12)N1CCOCC1 | 25.9 µM [rising, single point] | 0.13 µM [falling, single point] | 31
61 | O=c1[nH]c2cc(Cl)cc(Cl)c2[nH]c1=O |  | 14.6 µM [rising, single point] | 20
62 | Cc1ccccc1-n1c(SCC(=O)Nc2ccccc2Cl)nc2n[nH]c(C)c2c1=N | 29.1 µM [falling, single point] | 16.4 µM [falling, partial curve] | -36.2
